Reference: PubChem BioAssay AID504647 (National Center for Advancing Translational Sciences (NCATS), 2011)
The list shows a part of the results. These are further read-outs of the screen, such as a control signal, another cell line or another target. No call is given for them.

Assay: Assay for Inhibitors of Influenza NS1 Protein Function: Influenza virus replication assay in MDCK cells infected with virus A/PR/8/34
Details: MDCK infected influenza A/PR/8/34, virus titer TCID50; measured here: MDCK cell viability; at 5 µM; stronger effect = higher value
Source text: NIH Chemical Genomics Center [NCGC]
NIH Molecular Libraries Probe Centers Network [MLPCN]
Assay Submitter (PI): Daniel Engel
Influenza is a world-wide public health problem and emerging forms of the virus have the potential to cause a pandemic of equal or greater magnitude to the outbreaks recorded in 1918, 1957 or 1968. Vaccine development is proceeding and there also exist two classes of anti-influenza compounds. However these therapeutic modalities are neither fully effective nor widely enough available to fulfill global needs. In addition their potential usefulness against newly emergent strains is not known. Efforts are needed to develop novel agents against influenza virus, including broad-spectrum agents. Identification of small molecules that inhibit NS1 function either directly or by interfering with specific cellular pathways may be a key to increasing our defense against the virus.
We have miniaturized and optimized a cell based assay in which NS1 from influenza A is expressed in the budding yeast S. cerevisiae. NS1 is a multi-functional protein that counters the host innate immune response and facilitates viral versus cellular gene expression. Expression of NS1 causes a pronounced slow growth phenotype in yeast due to its intrinsic molecular activities. Small molecules that suppress the slow growth phenotype can be identified by a straightforward growth recovery assay using optical density (OD) as the measurement. The same yeast strain not expressing NS1 was used as positive control in the yeast growth recovery assay. The present experiment attempted to confirm the activity of compounds observed in the primary screen.
This assay confirms the activity of compounds from the primary screen by measuring their affect on viral replication.
Protocol details are given in Basu et al. J. Vir. 83(4):1881-1891 2009. […] All media and sera were from Invitrogen. […] Confluent cell monolayers were infected at a multiplicity of infection (MOI) of 0.1 for 48 h in the presence or absence of 5uM compound. Compounds were added at the beginning of infection and were present throughout the infection. After 48 h virus titers were determined by standard TCID50 analysis.

Compound	viability [%]
CC1(c2ccc3ccccc3c2)NC(=O)N(CC(=O)Nc2cccc(S(=O)(=O)N3CCOCC3)c2)C1=O (stereo not given)	101
Cc1ccccc1-c1nc(CS(=O)CC(=O)N2CCC3(CC2)OCCO3)c(C)o1 (stereo not given)	102
COc1ccc(C2/C=C\CN(S(=O)(=O)c3ccc4ccccc4c3)CC(=O)N2Cc2ccc(F)cc2)cc1 (stereo not given)	96.9
CC1CCC2(CC1)NC(=O)N(Cc1nc(-c3ccccc3)no1)C2=O (stereo not given)	99.2
CCOC(=O)N1CCN(S(=O)(=O)N2CCCC(C(=O)NCCCN3CC(C)CC(C)C3)C2)CC1 (stereo not given)	98
CC(=O)c1ccc(N2CCN(C(=O)c3cc(-c4ccc5c(c4)OCO5)nc4ccccc34)CC2)cc1	104
CC(C)(C)NC(=O)c1ccccc1-c1nc2ccccc2s1	102
Cc1ccc(/C=C/C(=O)Oc2ccc(C#N)cc2)o1	101
C=CCn1c(SCC2=C(C(=O)OCC)C(C)NC(=O)N2)nnc1C1CCCCC1 (stereo not given)	99.7
O=C(C1=NN(c2ccccc2)C2C(=O)N(c3ccccc3Cl)C(=O)C12)c1ccccc1 (stereo not given)	102
CC(C)CC(=O)NC(NC(=S)Nc1sc2c(c1C#N)CCCC2)C(Cl)(Cl)Cl (stereo not given)	98.3
Cc1ccc(N(CC(=O)Nc2cccc(C)c2)S(=O)(=O)c2cccc3nonc23)cc1	101
COc1ccc(-n2c(Cc3cccn3C)nnc2SCC(=O)Nc2ccc(Cl)cc2)cc1	104
Cc1ccc(C)c(N2CCN(C(=O)C3CCN(S(=O)(=O)c4cccc5nsnc45)CC3)CC2)c1	103
CC(C)(C)c1nnc2sc(SCC(=O)c3ccc(Cl)cc3)nn2c1=O	101
COc1cc(C2C(C#N)=C(N)Oc3c2ccc2ccccc32)ccc1OCC(=O)Nc1cccc(C)c1 (stereo not given)	103
COc1ccc(S(=O)(=O)N2CCCCC2)cc1NS(=O)(=O)c1cc(Cl)ccc1Cl	96.9
CCc1nnc(NS(=O)(=O)c2ccc(NC(=O)c3cc(Cl)ccc3[N+](=O)[O-])cc2)s1	98.5
COCCN1CCn2c(nc3cc(NC(=O)c4ccc(OC)cc4)ccc32)C1	105
Cc1cccc(NC(=O)c2cc(NC(=O)c3ccccc3)ccc2N2CCCCC2)c1	101

Compound	viability [%]
Cc1[nH]n(-c2cccc3ccccc23)c(=O)c1/C=N/c1sc2c(c1C#N)CCC2	97.3
CCCn1c(CCNc2nc(-c3ccc(Cl)c([N+](=O)[O-])c3)cs2)nc2cc(Cl)c(Cl)cc21	99.1
COc1ccccc1/C=C1\CCCC2=C1Nc1nnnn1C2c1ccccc1OC (stereo not given)	102
CN(C)c1ccc(NC(=O)CSCc2nc3c(nnn3Cc3ccc(F)cc3)c(=O)[nH]2)cc1	99.4
Cc1ccc(F)c([C@H]2[C@H]3C=CC[C@@H](C)[C@@H]3C(=O)N2Cc2ccccc2)c1	102
CCn1c2ccccc2c2cc(NC(=O)COC(=O)c3cccc(S(=O)(=O)NC)c3)ccc21	96.4
CC(=O)Nc1ccc(Nc2ncnc3ccccc23)cc1	102
Cc1cccc(OCc2nnc(SCC(=O)N3c4ccccc4CCc4ccccc43)o2)c1	103
CC1CC(C)CN(S(=O)(=O)N2CCCC(C(=O)NCc3ccccc3Cl)C2)C1 (stereo not given)	106
Cc1ccc(NC(=O)CC(=O)c2ccc([N+](=O)[O-])cc2)cc1S(=O)(=O)Nc1cccc(Cl)c1	105
COc1ccc(-c2cnnn2-c2ccc(NC(=O)c3ccc(S(=O)(=O)N4CCCCC4)cc3)cc2)cc1OC	99.6
Cc1ccc(S(=O)(=O)N2CCC(=O)N(C(COCc3ccc(Cl)cc3Cl)Cc3ccccc3)CC2)cc1 (stereo not given)	105
CCOc1ccc(C2=Nc3ccccc3C(c3ccc(N4CCOCC4)cc3)=NN2)cc1	103
Cc1ccc(/C=N/NC(=O)CN(Cc2ccccc2)S(=O)(=O)c2ccc3c(c2)OCCO3)cc1	105
O=C(CN1CCCCCC1=O)OCc1ncc(-c2ccccc2)o1	103
COc1ccc(/C=C\C(=O)NCc2ccc3c(c2)cc(C)n3C)cc1OC	97.8
CCCC1(c2ccccc2)NC(=O)N(CC(=O)c2[nH]c(C)c(C(=O)OCC)c2C)C1=O (stereo not given)	98.8
Cc1ccc(S(=O)(=O)Nc2ccc3nc(-c4cccn4C)[nH]c3c2)cc1	100
CCOC(=O)c1ccc(NC(=O)CSc2nnc(CCc3ccc(C)o3)n2-c2ccccc2)cc1	93
CN1CCN(C2=Nc3ccccc3Oc3ccc(Cl)cc32)CC1	96.6

Part of the list above, with bars between the fields:
Compound | viability [%]
CC1CC(C)CN(S(=O)(=O)N2CCCC(C(=O)NCc3ccccc3Cl)C2)C1 (stereo not given) | 106
Cc1ccc(NC(=O)CC(=O)c2ccc([N+](=O)[O-])cc2)cc1S(=O)(=O)Nc1cccc(Cl)c1 | 105
COc1ccc(-c2cnnn2-c2ccc(NC(=O)c3ccc(S(=O)(=O)N4CCCCC4)cc3)cc2)cc1OC | 99.6
Cc1ccc(S(=O)(=O)N2CCC(=O)N(C(COCc3ccc(Cl)cc3Cl)Cc3ccccc3)CC2)cc1 (stereo not given) | 105
CCOc1ccc(C2=Nc3ccccc3C(c3ccc(N4CCOCC4)cc3)=NN2)cc1 | 103
Cc1ccc(/C=N/NC(=O)CN(Cc2ccccc2)S(=O)(=O)c2ccc3c(c2)OCCO3)cc1 | 105
O=C(CN1CCCCCC1=O)OCc1ncc(-c2ccccc2)o1 | 103
COc1ccc(/C=C\C(=O)NCc2ccc3c(c2)cc(C)n3C)cc1OC | 97.8
CCCC1(c2ccccc2)NC(=O)N(CC(=O)c2[nH]c(C)c(C(=O)OCC)c2C)C1=O (stereo not given) | 98.8
Cc1ccc(S(=O)(=O)Nc2ccc3nc(-c4cccn4C)[nH]c3c2)cc1 | 100
CCOC(=O)c1ccc(NC(=O)CSc2nnc(CCc3ccc(C)o3)n2-c2ccccc2)cc1 | 93
